Reference: the supplement of paper PMC10849652
The list shows a part of the results.

Protein sequences, listed by entry. Tags and fused reporters are not part of them. Lines headed by an entry give the natural chain unless they say otherwise; changes in a name come on top.
UniProt P56377: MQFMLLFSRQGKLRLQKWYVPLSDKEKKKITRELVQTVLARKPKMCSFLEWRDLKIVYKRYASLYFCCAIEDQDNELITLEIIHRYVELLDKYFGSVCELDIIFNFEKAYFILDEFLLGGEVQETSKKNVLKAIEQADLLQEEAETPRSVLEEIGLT
UniProt Q02252: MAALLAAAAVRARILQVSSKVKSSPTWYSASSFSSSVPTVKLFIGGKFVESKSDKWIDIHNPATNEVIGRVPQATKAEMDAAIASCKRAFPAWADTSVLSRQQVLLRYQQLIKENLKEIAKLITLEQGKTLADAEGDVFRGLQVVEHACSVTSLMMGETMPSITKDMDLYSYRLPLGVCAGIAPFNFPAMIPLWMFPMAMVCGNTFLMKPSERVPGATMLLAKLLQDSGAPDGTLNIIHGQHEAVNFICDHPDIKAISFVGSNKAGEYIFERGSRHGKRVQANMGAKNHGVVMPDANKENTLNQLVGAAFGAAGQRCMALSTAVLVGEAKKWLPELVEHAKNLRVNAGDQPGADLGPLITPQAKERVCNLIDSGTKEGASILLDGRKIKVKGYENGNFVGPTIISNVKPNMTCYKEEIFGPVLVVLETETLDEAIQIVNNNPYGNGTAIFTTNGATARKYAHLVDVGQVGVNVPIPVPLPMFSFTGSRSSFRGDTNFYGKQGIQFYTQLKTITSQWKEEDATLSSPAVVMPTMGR
UniProt P30837: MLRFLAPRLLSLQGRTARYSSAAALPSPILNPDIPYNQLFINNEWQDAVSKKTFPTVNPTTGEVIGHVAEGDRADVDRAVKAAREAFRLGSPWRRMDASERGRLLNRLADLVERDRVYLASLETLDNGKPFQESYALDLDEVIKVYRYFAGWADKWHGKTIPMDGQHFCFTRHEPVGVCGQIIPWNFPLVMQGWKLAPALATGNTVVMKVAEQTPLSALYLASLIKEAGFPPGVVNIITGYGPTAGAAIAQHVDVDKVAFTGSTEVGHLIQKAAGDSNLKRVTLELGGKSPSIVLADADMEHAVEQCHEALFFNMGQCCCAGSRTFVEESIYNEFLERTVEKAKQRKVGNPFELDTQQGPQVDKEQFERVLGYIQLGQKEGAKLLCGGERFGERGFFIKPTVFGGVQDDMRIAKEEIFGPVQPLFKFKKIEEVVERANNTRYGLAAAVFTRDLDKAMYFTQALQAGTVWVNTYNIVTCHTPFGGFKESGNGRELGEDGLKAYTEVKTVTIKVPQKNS
UniProt Q9UPM8: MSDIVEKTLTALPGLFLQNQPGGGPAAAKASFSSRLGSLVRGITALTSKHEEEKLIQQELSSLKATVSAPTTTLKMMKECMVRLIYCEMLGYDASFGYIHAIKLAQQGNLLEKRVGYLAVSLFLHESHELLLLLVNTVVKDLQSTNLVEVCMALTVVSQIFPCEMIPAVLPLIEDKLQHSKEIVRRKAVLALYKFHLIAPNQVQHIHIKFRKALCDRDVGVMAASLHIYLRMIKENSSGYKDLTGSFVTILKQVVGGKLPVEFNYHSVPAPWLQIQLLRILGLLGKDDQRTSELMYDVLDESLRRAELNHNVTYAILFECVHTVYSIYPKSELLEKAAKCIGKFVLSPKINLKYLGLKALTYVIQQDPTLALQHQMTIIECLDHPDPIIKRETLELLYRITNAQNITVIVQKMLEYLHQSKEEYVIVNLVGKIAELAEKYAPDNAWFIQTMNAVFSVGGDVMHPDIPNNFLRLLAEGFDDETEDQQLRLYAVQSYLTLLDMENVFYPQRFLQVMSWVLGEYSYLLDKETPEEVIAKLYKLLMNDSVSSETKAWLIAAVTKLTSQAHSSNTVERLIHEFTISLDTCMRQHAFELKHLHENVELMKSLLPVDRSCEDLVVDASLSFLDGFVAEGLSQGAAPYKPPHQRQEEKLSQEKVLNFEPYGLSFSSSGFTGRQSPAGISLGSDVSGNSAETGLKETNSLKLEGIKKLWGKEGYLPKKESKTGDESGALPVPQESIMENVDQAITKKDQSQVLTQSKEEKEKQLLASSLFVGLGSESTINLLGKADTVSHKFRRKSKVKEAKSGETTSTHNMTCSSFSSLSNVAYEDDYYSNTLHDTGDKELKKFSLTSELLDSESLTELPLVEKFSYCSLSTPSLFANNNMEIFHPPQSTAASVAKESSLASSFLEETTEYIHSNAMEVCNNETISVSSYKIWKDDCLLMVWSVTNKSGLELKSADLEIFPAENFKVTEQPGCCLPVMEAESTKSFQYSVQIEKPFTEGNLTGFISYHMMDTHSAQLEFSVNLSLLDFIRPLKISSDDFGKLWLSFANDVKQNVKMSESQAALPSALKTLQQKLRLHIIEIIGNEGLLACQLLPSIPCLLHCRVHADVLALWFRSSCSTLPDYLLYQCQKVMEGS
UniProt Q8NB46: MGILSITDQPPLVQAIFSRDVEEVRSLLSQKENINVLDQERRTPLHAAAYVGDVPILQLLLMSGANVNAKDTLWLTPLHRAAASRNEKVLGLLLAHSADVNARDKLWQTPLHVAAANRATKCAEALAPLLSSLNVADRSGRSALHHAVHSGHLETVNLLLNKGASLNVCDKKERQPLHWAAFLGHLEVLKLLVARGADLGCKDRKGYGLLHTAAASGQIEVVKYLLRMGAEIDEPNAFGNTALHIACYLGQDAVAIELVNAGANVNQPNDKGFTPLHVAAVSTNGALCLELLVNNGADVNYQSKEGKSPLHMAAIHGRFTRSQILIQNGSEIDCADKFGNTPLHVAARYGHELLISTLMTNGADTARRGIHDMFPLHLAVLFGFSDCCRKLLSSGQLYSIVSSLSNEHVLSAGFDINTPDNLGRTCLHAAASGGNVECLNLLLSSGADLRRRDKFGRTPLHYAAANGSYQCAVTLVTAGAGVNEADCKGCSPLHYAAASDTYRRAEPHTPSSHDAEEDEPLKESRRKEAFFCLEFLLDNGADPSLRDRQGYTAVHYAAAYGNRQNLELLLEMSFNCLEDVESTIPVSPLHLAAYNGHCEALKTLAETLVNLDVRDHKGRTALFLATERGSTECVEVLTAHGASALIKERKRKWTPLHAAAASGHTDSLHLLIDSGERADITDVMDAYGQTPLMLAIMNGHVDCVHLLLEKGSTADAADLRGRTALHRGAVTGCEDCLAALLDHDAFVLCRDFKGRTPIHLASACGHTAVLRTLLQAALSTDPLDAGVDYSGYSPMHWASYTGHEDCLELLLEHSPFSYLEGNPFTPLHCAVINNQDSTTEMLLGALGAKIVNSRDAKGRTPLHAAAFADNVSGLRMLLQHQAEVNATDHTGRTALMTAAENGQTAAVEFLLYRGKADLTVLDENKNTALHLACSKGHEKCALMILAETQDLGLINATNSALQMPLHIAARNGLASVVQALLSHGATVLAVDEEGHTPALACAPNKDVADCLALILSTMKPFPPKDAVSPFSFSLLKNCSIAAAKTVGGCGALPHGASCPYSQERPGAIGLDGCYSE
UniProt P53677: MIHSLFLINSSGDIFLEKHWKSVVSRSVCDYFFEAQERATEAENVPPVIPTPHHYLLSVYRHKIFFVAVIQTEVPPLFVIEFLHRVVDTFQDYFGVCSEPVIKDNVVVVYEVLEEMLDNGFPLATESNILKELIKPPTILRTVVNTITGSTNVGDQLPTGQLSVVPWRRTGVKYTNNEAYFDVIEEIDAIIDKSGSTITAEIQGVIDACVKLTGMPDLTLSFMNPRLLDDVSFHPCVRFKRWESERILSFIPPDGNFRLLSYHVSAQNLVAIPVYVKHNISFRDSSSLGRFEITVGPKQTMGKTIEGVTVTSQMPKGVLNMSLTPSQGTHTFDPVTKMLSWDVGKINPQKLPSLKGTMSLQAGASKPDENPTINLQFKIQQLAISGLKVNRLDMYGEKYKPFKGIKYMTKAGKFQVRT
UniProt P20073: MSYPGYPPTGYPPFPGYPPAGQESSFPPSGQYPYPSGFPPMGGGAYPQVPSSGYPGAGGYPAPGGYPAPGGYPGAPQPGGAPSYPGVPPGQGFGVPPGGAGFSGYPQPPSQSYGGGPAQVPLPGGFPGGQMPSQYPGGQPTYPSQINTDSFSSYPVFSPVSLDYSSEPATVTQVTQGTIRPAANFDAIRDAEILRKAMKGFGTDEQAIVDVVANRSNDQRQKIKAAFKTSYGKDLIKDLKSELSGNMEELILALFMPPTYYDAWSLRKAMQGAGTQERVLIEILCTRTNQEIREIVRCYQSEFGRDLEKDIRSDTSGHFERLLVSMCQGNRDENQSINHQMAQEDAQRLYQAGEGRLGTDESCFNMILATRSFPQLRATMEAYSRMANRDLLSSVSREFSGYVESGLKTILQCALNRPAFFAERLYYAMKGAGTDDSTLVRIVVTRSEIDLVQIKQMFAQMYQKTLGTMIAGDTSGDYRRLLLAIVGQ
UniProt P53680: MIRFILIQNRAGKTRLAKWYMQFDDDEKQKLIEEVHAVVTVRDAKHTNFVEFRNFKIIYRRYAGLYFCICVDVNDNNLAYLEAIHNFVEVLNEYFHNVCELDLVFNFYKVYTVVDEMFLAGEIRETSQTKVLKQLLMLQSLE
UniProt P05091: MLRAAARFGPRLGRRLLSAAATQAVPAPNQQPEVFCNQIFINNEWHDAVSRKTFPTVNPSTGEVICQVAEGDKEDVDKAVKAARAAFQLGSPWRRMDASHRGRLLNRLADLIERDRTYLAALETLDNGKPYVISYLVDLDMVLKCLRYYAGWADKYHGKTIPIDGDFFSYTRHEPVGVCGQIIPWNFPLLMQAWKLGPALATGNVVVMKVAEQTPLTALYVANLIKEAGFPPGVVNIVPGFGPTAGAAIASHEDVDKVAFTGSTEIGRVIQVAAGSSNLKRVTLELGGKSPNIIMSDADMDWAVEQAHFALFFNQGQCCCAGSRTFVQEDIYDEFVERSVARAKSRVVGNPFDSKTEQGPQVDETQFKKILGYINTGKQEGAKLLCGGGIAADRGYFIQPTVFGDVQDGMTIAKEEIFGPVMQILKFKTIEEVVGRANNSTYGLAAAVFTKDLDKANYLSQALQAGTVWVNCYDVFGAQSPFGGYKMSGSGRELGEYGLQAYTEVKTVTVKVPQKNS
UniProt Q96NW4, whole entry, looked up: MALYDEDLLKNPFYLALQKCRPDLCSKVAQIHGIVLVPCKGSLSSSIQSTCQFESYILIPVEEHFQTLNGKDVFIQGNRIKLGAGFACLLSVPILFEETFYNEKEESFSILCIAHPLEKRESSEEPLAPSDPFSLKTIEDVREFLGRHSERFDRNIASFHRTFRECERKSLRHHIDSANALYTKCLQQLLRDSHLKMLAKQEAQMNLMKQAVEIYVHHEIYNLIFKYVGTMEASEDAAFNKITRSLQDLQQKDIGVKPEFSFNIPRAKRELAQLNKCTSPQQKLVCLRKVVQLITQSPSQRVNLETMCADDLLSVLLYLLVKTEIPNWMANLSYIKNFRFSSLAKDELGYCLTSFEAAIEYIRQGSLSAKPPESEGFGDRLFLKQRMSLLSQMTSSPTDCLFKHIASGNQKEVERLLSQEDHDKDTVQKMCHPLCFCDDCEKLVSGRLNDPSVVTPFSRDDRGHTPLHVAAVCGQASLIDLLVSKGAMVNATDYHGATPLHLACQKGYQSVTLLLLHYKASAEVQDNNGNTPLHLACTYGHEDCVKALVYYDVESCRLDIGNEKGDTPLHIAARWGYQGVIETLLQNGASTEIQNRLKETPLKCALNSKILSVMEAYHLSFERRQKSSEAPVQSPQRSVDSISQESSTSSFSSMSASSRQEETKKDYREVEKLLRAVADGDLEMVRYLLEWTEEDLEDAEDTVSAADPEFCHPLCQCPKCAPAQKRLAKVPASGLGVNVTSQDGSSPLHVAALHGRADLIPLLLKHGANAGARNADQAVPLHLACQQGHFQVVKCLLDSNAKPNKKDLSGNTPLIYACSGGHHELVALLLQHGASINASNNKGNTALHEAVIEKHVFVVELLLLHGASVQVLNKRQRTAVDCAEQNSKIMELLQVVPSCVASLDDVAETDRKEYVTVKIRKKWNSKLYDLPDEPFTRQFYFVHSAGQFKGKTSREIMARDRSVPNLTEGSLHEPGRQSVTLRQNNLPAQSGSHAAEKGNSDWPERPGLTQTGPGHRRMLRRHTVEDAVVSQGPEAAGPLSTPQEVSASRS
UniProt P61966: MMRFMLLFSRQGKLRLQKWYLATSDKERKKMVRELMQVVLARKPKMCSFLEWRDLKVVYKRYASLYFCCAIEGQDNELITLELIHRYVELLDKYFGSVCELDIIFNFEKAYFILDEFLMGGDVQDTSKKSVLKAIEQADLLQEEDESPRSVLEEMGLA

Compound: C1=CC2=C(C=CC(=C2)/C=C\3/C(=O)NC(=NCC4=CC=CS4)S3)N=C1
Assay: log2 fold change, soluble protein after heating vs DMSO (PISA); higher = thermal stabilisation; K562 lysate, 10 uM; active = over 0.2 and 3.5 SD of the protein, either way, in both replicates (recomputed)
How it was run: (§1)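 Values give the log-two fold change in thermal stability against solvent controls, from duplicates. Crude K562 extract at 1 mg/mL protein, made by dounce homogenisation in PBS pH 7.4 with 1 mM MgCl2, was treated with 10 μM compound for 30 min. After 3 min heating across 48°C-58°C, aliquots were pooled, adjusted to 0.5% NP-40 at 4°C and centrifuged at 21,000xg for 90 min. The supernatant was measured by TMTpro 16plex LC-MS/MS with channel sums equalised.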

log2 fold change, inactive:
ANKRD54 (UniProt Q6NXT1) -0.036, AP1S2 isoform 2 (UniProt P56377) 0.024, ALDH1A1 (UniProt P00352) 0.048, ALDH6A1 (UniProt Q02252) -0.068, ANXA11 (UniProt P50995) -0.022, ANO6 (UniProt Q4KMQ2) -0.019, ALDH1B1 (UniProt P30837) -0.004, AP4E1 (UniProt Q9UPM8) 0.035, ALG12 (UniProt Q9BV10) 0.01, ANKFY1 isoform 4 (UniProt Q9P2R3) -0.003, ANKRD52 (UniProt Q8NB46) -0.011, AP3M2 (UniProt P53677) -0.176, ALYREF (UniProt Q86V81) 0.042, ANXA7 (UniProt P20073) 0.005, AKT1S1 isoform 3 (UniProt Q96B36) -0.03, AMPD3 isoform 4 (UniProt Q01432) 0.007, AP2B1 isoform 2 (UniProt P63010) -0.001, ALKBH8 isoform 4 (UniProt Q96BT7) 0.054, AP3M1 (UniProt Q9Y2T2) 0.009, ANXA2 isoform 2 (UniProt P07355) -0.003, ANXA6 (UniProt P08133) -0.003, ALDH4A1 (UniProt P30038) -0.048, AP2S1 (UniProt P53680) 0.01, ALDH2 (UniProt P05091) 0.03, ANKRD27 (UniProt Q96NW4) 0.04, ANP32B (UniProt Q92688) -0.023, ANXA3 (UniProt P12429) 0.014, ALDOC (UniProt P09972) 0.011, AP4B1 (UniProt Q9Y6B7) 0.096, ANLN (UniProt Q9NQW6) -0.019, AP1S1 (UniProt P61966) 0, ANGEL2 (UniProt Q5VTE6) -0.074, AP2A1 (UniProt O95782) 0.022

Compound: C1=CC2=NC=CN=C2C=C1/C=C/3\C(=O)NC(=O)S3
Assay: as above
How it was run: as §1

log2 fold change, inactive:
ANKRD54 (UniProt Q6NXT1) 0.025, AP1S2 isoform 2 (UniProt P56377) -0.017, ALDH1A1 (UniProt P00352) 0.008, ALDH6A1 (UniProt Q02252) -0.179, ANXA11 (UniProt P50995) 0.017, ANO6 (UniProt Q4KMQ2) -0.022, ALDH1B1 (UniProt P30837) 0.031, AP4E1 (UniProt Q9UPM8) 0, ALG12 (UniProt Q9BV10) -0.135, ANKFY1 isoform 4 (UniProt Q9P2R3) -0.001, ANKRD52 (UniProt Q8NB46) 0.021, AP3M2 (UniProt P53677) -0.018, ALYREF (UniProt Q86V81) 0.041, ANXA7 (UniProt P20073) -0.006, AKT1S1 isoform 3 (UniProt Q96B36) -0.012, AMPD3 isoform 4 (UniProt Q01432) -0.072, AP2B1 isoform 2 (UniProt P63010) -0.029, ALKBH8 isoform 4 (UniProt Q96BT7) -0.056, AP3M1 (UniProt Q9Y2T2) -0.018, ANXA2 isoform 2 (UniProt P07355) 0.003, ANXA6 (UniProt P08133) -0.011, ALDH4A1 (UniProt P30038) 0.046, AP2S1 (UniProt P53680) 0.003, ALDH2 (UniProt P05091) 0.042, ANKRD27 (UniProt Q96NW4) -0.033, ANP32B (UniProt Q92688) 0.014, ANXA3 (UniProt P12429) -0.041, ALDOC (UniProt P09972) -0.009, AP4B1 (UniProt Q9Y6B7) 0.038, ANLN (UniProt Q9NQW6) -0.072, AP1S1 (UniProt P61966) -0.029, ANGEL2 (UniProt Q5VTE6) -0.09, AP2A1 (UniProt O95782) -0.027

Compound: C1=CC=C(C=C1)C2=NC(=C(N2)C3=CC=NC=C3)C4=CC(=C(C=C4)Cl)O
Assay: as above
How it was run: as §1

log2 fold change, inactive:
ANKRD54 (UniProt Q6NXT1) 0.037, AP1S2 isoform 2 (UniProt P56377) -0.007, ALDH1A1 (UniProt P00352) -0.033, ALDH6A1 (UniProt Q02252) 0.043, ANXA11 (UniProt P50995) -0.079, ANO6 (UniProt Q4KMQ2) -0.013, ALDH1B1 (UniProt P30837) 0.009, AP4E1 (UniProt Q9UPM8) -0.016, ALG12 (UniProt Q9BV10) -0.02, ANKFY1 isoform 4 (UniProt Q9P2R3) 0.005, ANKRD52 (UniProt Q8NB46) 0.013, AP3M2 (UniProt P53677) -0.208, ALYREF (UniProt Q86V81) 0.038, ANXA7 (UniProt P20073) 0.004, AKT1S1 isoform 3 (UniProt Q96B36) 0.019, AMPD3 isoform 4 (UniProt Q01432) -0.004, AP2B1 isoform 2 (UniProt P63010) 0.001, ALKBH8 isoform 4 (UniProt Q96BT7) 0.012, AP3M1 (UniProt Q9Y2T2) 0, ANXA2 isoform 2 (UniProt P07355) 0.004, ANXA6 (UniProt P08133) 0.011, ALDH4A1 (UniProt P30038) -0.001, AP2S1 (UniProt P53680) 0.014, ALDH2 (UniProt P05091) -0.016, ANKRD27 (UniProt Q96NW4) 0.02, ANP32B (UniProt Q92688) -0.024, ANXA3 (UniProt P12429) -0.051, ALDOC (UniProt P09972) 0.012, AP4B1 (UniProt Q9Y6B7) 0.019, ANLN (UniProt Q9NQW6) 0.01, AP1S1 (UniProt P61966) -0.01, ANGEL2 (UniProt Q5VTE6) -0.193, AP2A1 (UniProt O95782) 0.006
